PubChem BioAssay AID651640 (Broad Institute, 2012)
“And” between values parts separate entries of the source, which are not always exact repeats. Equal entries are not always repeated. Out of some 350,000 compounds screened, about 6,000 (1.7%) were called active. Inconclusive results, whose numbers are uncertain, are shown with a selection of clear calls. Cut-off read from the data, not from the text of the source: active = CPE inhibition above about 20% (passing the limit was not always enough); inconclusive = no clear call, values can overlap the other calls; tested in BHK-21 cells. Some structures have more than one record in an assay (separate samples or runs), and their calls can disagree.

Assay: protection of cells from dengue 2 killing – plate reader, single concentration, primary screen (AID 651640);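 note: 0% = median of neutral control wells and 100% = median of positive control wells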
Conditions: DENV2-infected cells, cytopathic effect rescue, at 9.99 µM, stronger effect = higher value

Row | SMILES | CPE inhibition
1 | COc1cccc(-c2ccc([C@@H]3[C@@H](CO)N4CCCCN(C(=O)Cc5ccncc5)C[C@@H]34)cc2)c1 | inactive: 6.31%
2 | CN(C)CC#Cc1ccc([C@@H]2[C@H]3CN(C(=O)Cc4ccccn4)CCCCN3[C@H]2CO)cc1 | active: 30.2%
3 | COC(=O)C1C(c2ccc(C)cc2)CC2CCC1N2C (stereo not given) | active: 28.1%
4 | CCC1(c2ccc(N)cc2)CCC(=O)NC1=O (stereo not given) | inconclusive: 40.2%
5 | COC(=O)C1=C(c2c(C)noc2C)C[C@@H]2CC[C@H]1N2C(=O)NC1CC1 | inactive: -16.2%
6 | O=C(NC[C@H]1CC[C@@H]2NC[C@@H]2O1)C1CCCC1 | inconclusive: 42.3%
7 | O=C(C1CC1)N1C[C@@H]2N[C@H](C1)C2c1ccc(-c2cncnc2)cc1 (stereo not given in full) | inconclusive: 40.8%
8 | COc1cccc(NC(=O)CN2CC(c3ccccc3)CC2=O)c1 (stereo not given) | inactive: -7.74%
9 | O=c1c2ccccc2nc(CNCC2CCCO2)n1-c1ccc(F)cc1 (stereo not given) | inconclusive: 20.1%
10 | Cc1cc(N(CCCl)CCCl)ccc1C=NNC(=O)Cc1cc(=O)oc2cc(O)ccc12 | inconclusive: 25.1%
11 | CCN1/C(=C/C=C/C2=[N+](CC)c3ccccc3C2(C)C)C(C)(C)c2ccccc21 | inactive: -8.55%
12 | C[C@@H](N)Cc1cnc[nH]1 | inconclusive: 40.1%
13 | O=C1NC(=S)N(c2ccccc2)C(=O)/C1=C/c1ccco1 | inactive: 3.31%
14 | CC(C)COC(=O)N1Cc2ccccc2-n2nncc2C1 | inconclusive: 21.1%
15 | COc1ccc2[nH]c3c(c2c1)CCN[C@H]3C | inconclusive: 34.7%
16 | COC(=O)[C@@H]1[C@@H](CO)[C@@H]2Cn3c(cccc3=O)[C@@H]2N1CC1CC1 | inconclusive: 49.1%
17 | NC(=O)c1cn(C2OC(CO)C(O)C2O)c2ncnc(N)c12 (stereo not given) | inconclusive: 27.1%
18 | C/C=C/c1ccc([C@H]2[C@H](CO)N3CCCCN(C(=O)Cc4ccncc4)C[C@@H]23)cc1 | inconclusive: 28.6%
19 | COc1ccc(C(=O)OC2CC3CCC(C2)[N+]3(C)[O-])cc1OC (stereo not given) | inconclusive: 24%
20 | Cc1cccc2nc(-c3ccccc3)c(-c3ccc(CN4CCC(n5c(=O)[nH]c6ccccc65)CC4)cc3)nc12 | inconclusive: 29%
21 | Cc1nc2ccccc2c(=O)n1-c1nccs1 | active: 43.3%
22 | C[C@]12CCC3[C@@H](CC[C@H]4C[C@@H](O)CC[C@]34C)C1CCC2=O (stereo not given in full) | inactive: -5.03%
23 | O=C1C(=Cc2ccccc2)N2CCC1CC2 | active: 29.1%
24 | CCCCn1nnnc1C(C1CC1)N1CCC2(CC1)C(=O)NCN2c1ccccc1 (stereo not given) | inconclusive: 29.5%
25 | N#Cc1cc2c(nc1SCC(=O)Nc1ccc(Cl)cc1)C1CCN2CC1 | inconclusive: 38.5%
26 | COc1ccc(-c2[nH]ncc2CNC(C)Cc2ccsc2)c(F)c1 (stereo not given) | inactive: -0.08%
27 | COc1ccc(CN2Cc3cc(N4CCCCC4)ccc3-n3nncc3C2)cc1 | inconclusive: 28.3%
28 | O=C(CN1CC(c2ccccc2)CC1=O)Nc1ccccc1 (stereo not given) | active: 115%

Row | SMILES | CPE inhibition
29 | Cc1cccc(NC(=O)COC(=O)c2cc(C)n(C3CC3)c2C)c1 | inconclusive: 59.9%
30 | CCc1cc(=O)oc2cc(C)cc(OCC(=O)N3CCC(C(=O)O)(c4ccccc4)CC3)c12 | inconclusive: 31.5%
31 | Cc1cc(C=O)c(C)n1C(C)C | inactive: -2.27%
32 | c1cc2c(cc1[C@H]1OCC3C1CO[C@@H]3c1ccc3c(c1)OCO3)OCO2 (stereo not given in full) | inconclusive: 81.9%
33 | COc1ccc(N2C(=O)/C(=C/c3ccc(C)o3)C(=O)NC2=S)cc1 | inconclusive: 28.4%
34 | Cc1nc2ccccc2c(=O)n1-c1ccncc1 | inactive: -2.43%
35 | CC1CN(c2ccc([N+](=O)[O-])c(N3CCCCC3)c2)CCN1 (stereo not given) | inconclusive: 20.6%
36 | CSc1ccc(CNC2CN3CCC2CC3)cc1 (stereo not given) | inactive: 1.87%
37 | O=C1NCN(c2ccccc2)C12CCN(C(CCc1ccccc1)c1nnnn1C1CCCCC1)CC2 (stereo not given) | inconclusive: 66.8%
38 | CC(N)Cc1c[nH]c2ccc(O)cc12 (stereo not given) | inconclusive: 22.4%
39 | Oc1ccc2c3c1OC1c4oc5ccccc5c4C[C@@]4(O)[C@@H](C2)N(CC2CC2)CC[C@]314 (stereo not given in full) | inconclusive: 65.8%
40 | C=CCn1c(O)c(/C(C)=N/NC(=S)Nc2ccccc2)c(=O)[nH]c1=O | inconclusive: 30.7%
41 | COc1ccc(CC(=O)N(CCN(C)C)CC2CCCN(Cc3ccccc3F)C2)cc1 (stereo not given) | active: 26.6%
42 | Fc1cccc(F)c1-c1nc(-c2ccc(Cl)cc2)no1 | inconclusive: 31.3%
43 | COC(=O)C1=C(c2cc3ccccc3s2)C[C@@H]2CC[C@H]1N2C(=O)NCCCOC(C)C | inconclusive: 43.6%
44 | c1cc2c(cc1C1OCC3C(c4ccc5c(c4)OCO5)OCC13)OCO2 (stereo not given) | active: 62%
45 | O=C(Cc1cccnc1)N1CCCCN2[C@H](CO)[C@@H](c3ccc(C#CC4CC4)cc3)[C@H]2C1 | inactive: 7.1%
46 | Cn1cc(C(=O)OCC(=O)NC2(C#N)CCCC2)c2ccccc21 | inconclusive: 36.3%
47 | CC(N)C(=O)NC1C2C(=C(O)CC(O)C2O)C(=O)OC1(C)C(Cl)Cl (stereo not given) | inconclusive: 43.5%
48 | COc1ccc(C#Cc2ccc([C@H]3[C@H](CO)N4CCCCN(C(=O)Cc5cccnc5)C[C@@H]34)cc2)cc1 | inactive: 9.44%
49 | O=C1CC[C@@]2(O)[C@H]3Cc4ccc(O)c5c4[C@@]2(CCN3CC2CC2)C1O5 (stereo not given in full) | active: 28.4% and inactive: -3.19%
50 | COC(=O)C1=C(c2ccc(F)cc2OCc2ccccc2)C[C@@H]2CC[C@H]1N2C(=O)NC1Cc2ccccc2C1 | inconclusive: 65.6%
51 | CCOP(=S)(NN(Cc1ccccc1)C(=O)c1ccccc1)OCC | inconclusive: 24%
52 | CCOC(=O)c1cccc(C2=C(CNC(C)=O)[C@H]3CC[C@@H](C2)N3Cc2ccccc2)c1 | active: 32%
53 | COc1ccccc1CCNC1CCC(C(C)(C)C)CC1 (stereo not given) | inconclusive: 20.5%
54 | CCCN1[C@@H]2Cn3c(ccc(-c4ccccc4)c3=O)[C@H]1[C@@H](C(=O)OC)[C@@H]2CO | inactive: 6.67%
55 | O=[N+]([O-])c1ccc(N(CCO)CCO)c2c1no[n+]2[O-] | inactive: 1.81%

3 compounds drawn at random from the list so far:
Row | SMILES | CPE inhibition
48 | COc1ccc(C#Cc2ccc([C@H]3[C@H](CO)N4CCCCN(C(=O)Cc5cccnc5)C[C@@H]34)cc2)cc1 | inactive: 9.44%
43 | COC(=O)C1=C(c2cc3ccccc3s2)C[C@@H]2CC[C@H]1N2C(=O)NCCCOC(C)C | inconclusive: 43.6%
45 | O=C(Cc1cccnc1)N1CCCCN2[C@H](CO)[C@@H](c3ccc(C#CC4CC4)cc3)[C@H]2C1 | inactive: 7.1%
